Source: PubChem BioAssay AID2685 (National Center for Advancing Translational Sciences (NCATS), 2010)
This is one part of the list. These are further read-outs of the screen, such as a control signal, another cell line or another target. No call is given for them. Compounds called inactive in the main read-out are mostly missing here. Words in brackets tell the shape of the fitted curve; partial curves, single points and poor fits give uncertain potencies.

Test: qHTS Assay for Lipid Storage Modulators in Drosophila S3 Cells;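 for cell number change: cells counted by Cell Tracker Red CMTPX staining in the red channel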
Settings: BODIPY lipid droplet fluorescence, 18-24 h; for cell number change: measured here: cell count max response, cells fed with added oleic acid
How it was run: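 Drosophila S3 cells got compounds at several concentrations plus oleic acid (400 uM solution). Laser-scanning cytometry with 488 nm excitation read lipid droplets at 500-530 nm and cells at 575-640 nm. Percent activity was relative to 20 uM Triacsin C.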

[1] = measured here: cell number channel AC50, cells fed with added oleic acid
[2] = measured here: lipid fluorescence (Fed channel) AC50, cells fed with added oleic acid

Structure (SMILES): COc1ccc(N(CC(=O)NCc2ccc3c(c2)OCO3)S(=O)(=O)c2c(C)nn(C)c2C)cc1
- cell number change: 23%
- AC50 [1]: 0.0231 µM [rising, full curve, poor fit]

Structure (SMILES): CCOc1ccc(CCNC(=O)CN2CCN(Cc3ccc(F)cc3)C2=O)cc1OCC
- cell number change: -17.9%
- AC50 [2]: 3.66 µM [falling, full curve, poor fit]

Structure (SMILES): C[N+]1=C(/C=C/Nc2ccccc2Cl)C(C)(C)c2ccccc21
- cell number change: -1.83%
- AC50 [2]: 16.4 µM [falling, single point]

Structure (SMILES): CCCCCCCC[n+]1c(C)n(-c2ccccc2)c2ccc(NC(C)=O)cc21
- cell number change: -54.9%
- AC50 [1]: 29.1 µM [falling, single point]
- AC50 [2]: 29.1 µM [falling, partial curve]

Structure (SMILES): CC(Sc1nnnn1-c1ccc(O)cc1)c1nc2ccccc2c(=O)[nH]1 (stereo unspecified)
- cell number change: 17.5%
- AC50 [1]: 0.0651 µM [rising, full curve, poor fit]
- AC50 [2]: 1.16 µM [rising, partial curve]

Structure (SMILES): CC[n+]1c(/C=C/N(C)c2ccccc2)oc2ccc(Cl)cc21
- cell number change: -27.4%
- AC50 [2]: 29.1 µM [falling, single point]

Structure (SMILES): CCCn1c(/C=C/c2cc[n+](C)cc2)nc2ccccc21
- cell number change: -8.93%
- AC50 [2]: 0.0517 µM [falling, full curve, poor fit]

Structure (SMILES): NC1=NC(=Nc2cccc(S(N)(=O)=O)c2)c2ccccc21
- cell number change: -41.3%
- AC50 [1]: 25.9 µM [falling, single point]
- AC50 [2]: 29.1 µM [falling, single point]

Structure (SMILES): CCN(CCNC(=O)CN(C)S(=O)(=O)c1cccc2nsnc12)c1ccccc1
- AC50 [1]: 6.51 µM [rising, single point]
- AC50 [2]: 6.51 µM [rising, single point]

Structure (SMILES): Cc1onc(-c2ccccc2)c1C(=O)N1CCN(c2ccccc2F)CC1
- cell number change: -7.89%

Structure (SMILES): O=C(NC(=O)N1CCN(c2ccccc2F)CC1)c1ccccc1
- cell number change: 13.5%
- AC50 [2]: 5.8 µM [rising, partial curve]

Structure (SMILES): COc1ccccc1NC(=O)CSc1nnnn1-c1ccccc1F
- cell number change: 16.4%
- AC50 [2]: 29.1 µM [rising, single point]

Structure (SMILES): COc1ccc(-c2ccc(SCC(=O)c3cccs3)nn2)cc1OC
- cell number change: 13.9%
- AC50 [2]: 0.082 µM [falling, single point]

Structure (SMILES): OCC[C@H]1C[C@H](O)[C@@H](O)[C@@]2(Cc3ccccc3CCO2)O1
- cell number change: -34.2%
- AC50 [1]: 2.91 µM [falling, partial curve]
- AC50 [2]: 3.66 µM [falling, partial curve]

Structure (SMILES): CN(C)S(=O)(=O)c1ccc(C(=O)Nc2ccc3c(c2)CCC3)cc1
- cell number change: 9.68%
- AC50 [2]: 29.1 µM [falling, single point]

Structure (SMILES): CCOc1ccc(CCNC(=O)Cn2ncn3nc(-c4ccc(OC)cc4)cc3c2=O)cc1OCC
- cell number change: -27%
- AC50 [2]: 16.4 µM [falling, partial curve]

Structure (SMILES): O=C(O)CCSc1ccc2ccccc2n1
- cell number change: 6.99%
- AC50 [2]: 0.0058 µM [falling, full curve, poor fit]

Structure (SMILES): O=C(Nc1nnc(SCc2ccccc2Cl)s1)C1COc2ccccc2O1 (stereo unspecified)
- cell number change: -17.6%
- AC50 [2]: 0.146 µM [falling, full curve, poor fit]

Structure (SMILES): O=C(O)Cn1c(SCCOc2ccc(Cl)cc2)nc2ccccc21
- cell number change: 14%
- AC50 [2]: 18.4 µM [rising, partial curve]

Structure (SMILES): Cc1ccc(S(=O)(=O)N2CCCCC2)cc1NC(=O)C1CC(=O)N(Cc2ccccc2)C1 (stereo unspecified)
- cell number change: -6.59%
- AC50 [2]: 2.31 µM [falling, full curve, poor fit]

Structure (SMILES): C/C(=N\NC(=O)C1(C)CC1(Br)Br)c1ccc(NC(=O)c2ccc(C)o2)cc1 (stereo unspecified)
- cell number change: -66.2%
- AC50 [1]: 20.6 µM [falling, partial curve, poor fit]
- AC50 [2]: 23.1 µM [falling, single point]

Structure (SMILES): CCCNS(=O)(=O)c1ccc(OCC(=O)Nc2ccc3c(c2)OCCO3)c(C)c1
- cell number change: 7.7%

Structure (SMILES): CCOc1ccccc1OCC(=O)Nc1ccc(Cl)cc1Cl
- cell number change: -1.19%
- AC50 [1]: 7.31 µM [rising, partial curve, poor fit]

Structure (SMILES): O=C(CN(C(=O)c1ccccc1Cl)C1CCCCC1)Nc1ccc(Cl)c([N+](=O)[O-])c1
- cell number change: 13.5%
- AC50 [2]: 25.9 µM [falling, single point]

Structure (SMILES): COC(=O)c1ccc2ccn(CC(=O)NC(C)C)c2c1
- cell number change: 23.2%
- AC50 [2]: 29.1 µM [rising, single point]

Structure (SMILES): COc1ccccc1-c1cc(C(=O)N/N=C/C=C/c2ccccc2[N+](=O)[O-])c2ccccc2n1
- cell number change: 46.6%
- AC50 [1]: 0.326 µM [rising, full curve]
- AC50 [2]: 2.91 µM [rising, partial curve]

Structure (SMILES): O=C(COC(=O)[C@H](Cc1c[nH]c2ccccc12)NC(=O)c1cccs1)NCc1ccccc1
- cell number change: 64.4%
- AC50 [1]: 29.1 µM [rising, single point]
- AC50 [2]: 29.1 µM [falling, single point]

Structure (SMILES): CC(C)(O)C#Cc1ccc(CN2CCC(CO)(CCc3ccccc3)CC2)cc1
- cell number change: 13.2%
- AC50 [2]: 0.366 µM [rising, partial curve, poor fit]

Structure (SMILES): O=C(CCN1C(=O)C2C3C=CC(C3)C2C1=O)Nc1nccs1 (stereo unspecified)
- cell number change: 24.8%

Structure (SMILES): CN(c1ccc(C(=O)NC2CC3CCC2C3)cc1)S(C)(=O)=O (stereo unspecified)
- cell number change: -14.6%

Structure (SMILES): CC(=O)c1ccc(S(=O)(=O)N2CCn3cccc3C2C)cc1 (stereo unspecified)
- cell number change: 5.06%
- AC50 [2]: 0.00461 µM [rising, full curve, poor fit]

Structure (SMILES): Cc1[nH]n(-c2ccccc2)c(=O)c1C=Nc1ccc(S(=O)(=O)N(C)C)cc1
- cell number change: 13.6%
- AC50 [2]: 0.651 µM [rising, partial curve, poor fit]

Structure (SMILES): COc1ccc(N2CCN(Cc3nc4c(c(=O)n(C)c(=O)n4C)n3Cc3cccc(C)c3)CC2)cc1
- cell number change: -24.9%
- AC50 [2]: 6.51 µM [falling, partial curve]

Structure (SMILES): Cc1ccc(S(=O)(=O)Cn2nnnc2C(CC(C)C)N2CCC(C(N)=O)CC2)cc1 (stereo unspecified)
- cell number change: -1.74%
- AC50 [2]: 29.1 µM [falling, single point]

Structure (SMILES): CCOC(CNC(=O)c1ccc2c(c1)nc(C)n2-c1cccc(F)c1)OCC
- cell number change: 9.2%
- AC50 [2]: 0.58 µM [rising, full curve, poor fit]

Structure (SMILES): O=C(OCC(=O)N1CCCC1=O)c1cc2ccccc2o1
- cell number change: 22.5%
- AC50 [2]: 20.6 µM [rising, single point]

Structure (SMILES): CC(C)Cn1c(N)c(C(=O)COC(=O)C2Cc3ccccc3CN2S(C)(=O)=O)c(=O)n(C)c1=O (stereo unspecified)
- cell number change: -53.4%
- AC50 [1]: 13 µM [falling, partial curve]
- AC50 [2]: 20.6 µM [falling, partial curve]

Structure (SMILES): O=C(NCCO)C(=O)NCC1CCCN1S(=O)(=O)c1cccs1 (stereo unspecified)
- cell number change: -22.9%

Structure (SMILES): Cn1cnnc1SCC(=O)Nc1ccccc1C(=O)NC1CCCC1
- cell number change: 15.9%
- AC50 [2]: 0.82 µM [falling, full curve, poor fit]

Structure (SMILES): COc1ccc(Nc2c3c(c(C#N)c4nc5ccccc5n24)CCC3)cc1
- cell number change: -33.5%
- AC50 [1]: 1.46 µM [falling, full curve]

Structure (SMILES): O=[N+]([O-])c1cccc(NC(=S)N2CCc3ccccc32)c1
- cell number change: -16.5%
- AC50 [2]: 0.13 µM [falling, full curve, poor fit]

Structure (SMILES): Cc1cccc(N2CCN(C(=O)c3nn(C)c4c3CS(=O)(=O)c3ccccc3-4)CC2C)c1 (stereo unspecified)
- cell number change: 12.2%

Structure (SMILES): Nc1nc2c(ncn2[C@H]2C[C@H](O)[C@@H](CO)O2)c(=O)[nH]1
- cell number change: -55.4%
- AC50 [1]: 18.4 µM [falling, partial curve, poor fit]
- AC50 [2]: 7.31 µM [falling, single point]

Structure (SMILES): COc1ccc(C(C(=O)NC2CCCC2)N(CCC(C)C)C(=O)CCC(=O)Nc2cc(C)on2)cc1 (stereo unspecified)
- cell number change: -21.8%

Structure (SMILES): CC(=O)Nc1ccc(S(=O)(=O)N2CCC(C(=O)NCc3cccnc3)CC2)cc1
- cell number change: -0.85%
- AC50 [1]: 0.146 µM [falling, full curve, poor fit]

Structure (SMILES): CC(C(=O)N1CCCc2ccccc21)N1CCN(c2ccccn2)CC1 (stereo unspecified)
- cell number change: 47.4%
- AC50 [1]: 29.1 µM [rising, single point]
- AC50 [2]: 29.1 µM [rising, single point]

Structure (SMILES): CCOC(=O)Cn1nnnc1C(CC)N(Cc1ccccc1)Cc1cc2cc(C)ccc2[nH]c1=O (stereo unspecified)
- cell number change: 30.6%
- AC50 [1]: 16.4 µM [rising, partial curve, poor fit]
- AC50 [2]: 20.6 µM [rising, partial curve]

Structure (SMILES): C=CCOc1cccc(C(=O)N2CCCC(Nc3ccc4c(c3)OCCO4)C2)c1 (stereo unspecified)
- cell number change: 7.33%

Structure (SMILES): O=C(CSc1nc2ccccc2nc1SCC(=O)N1CCCCC1)N1CCCCC1
- AC50 [2]: 32.6 µM [falling, single point]

Structure (SMILES): Cc1cc2c(ncn2C)c(NS(=O)(=O)c2ccc(F)cc2)c1C
- cell number change: -22%

Structure (SMILES): CCSc1nc2c(c(=O)[nH]1)C(c1cccs1)C(C(=O)OC)=C(C)N2 (stereo unspecified)
- cell number change: 23%
- AC50 [1]: 2.31 µM [rising, full curve, poor fit]
- AC50 [2]: 2.06 µM [rising, full curve, poor fit]

Structure (SMILES): O=C(Nc1cnn(Cc2ccc(Cl)cc2)c1)c1cnccn1
- cell number change: 1.27%
- AC50 [2]: 6.51 µM [rising, single point]

Structure (SMILES): COCC(C)NCc1ccccc1C (stereo unspecified)
- cell number change: 19.6%

Structure (SMILES): CCCn1c(-c2cccs2)nc2ccccc21
- cell number change: 32.7%
- AC50 [1]: 14.6 µM [rising, single point]
- AC50 [2]: 2.59 µM [rising, partial curve]

Structure (SMILES): Cc1noc2ncnc(N3CCN(c4cccc(Cl)c4)CC3)c12
- cell number change: -0.112%
- AC50 [2]: 0.82 µM [rising, full curve, poor fit]

Structure (SMILES): Cc1ccccc1Nc1nnc(SCc2cc(=O)n3ccsc3n2)s1
- cell number change: -34.5%
- AC50 [1]: 23.1 µM [falling, single point]

Structure (SMILES): Cc1ccc(/C=N/NC(=O)C2COc3ccccc3O2)s1 (stereo unspecified)
- cell number change: 109%
- AC50 [1]: 18.4 µM [rising, single point]
